Reference: the supplement of paper PMC8728848
Some of the results follow.

Legend:
Assay in all cases: glycan array binding signal (z-score within array); higher = stronger binding
Conditions in all cases: glycan notation: IUPAC condensed, linker removed
[1] = biological target: Gal(b1-3)GlcNAc(b1-3)Gal(b1-4)GlcNAc(b1-2)Man(a1-3)[Gal(b1-3)GlcNAc(b1-3)Gal(b1-4)GlcNAc(b1-2)Man(a1-6)]Man(b1-4)GlcNAc(b1-4)GlcNAc
Procedure, shortened: (§1)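 From the Consortium for Functional Glycomics database, 3228 arrays were curated, keeping only those whose protein sequence was available. Binding is given as a within-array Z-score averaged across arrays sharing a protein sequence and across linkers. Negative Z-scores can be read as non-binding.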

[2] = biological target: Gal(b1-3)GlcNAc(b1-3)Gal(b1-4)GlcNAc(b1-2)[Gal(b1-3)GlcNAc(b1-3)Gal(b1-4)GlcNAc(b1-6)]Man(a1-6)[Gal(b1-3)GlcNAc(b1-3)Gal(b1-4)GlcNAc(b1-2)Man(a1-3)]Man(b1-4)GlcNAc(b1-4)[Fuc(a1-6)]GlcNAc
Procedure, shortened: as §1

[3] = biological target: Gal(b1-3)GlcNAc(b1-3)Gal(b1-4)GlcNAc(b1-3)Gal(b1-4)GlcNAc(b1-2)[Gal(b1-3)GlcNAc(b1-3)Gal(b1-4)GlcNAc(b1-3)Gal(b1-4)GlcNAc(b1-6)]Man(a1-6)[Gal(b1-3)GlcNAc(b1-3)Gal(b1-4)GlcNAc(b1-3)Gal(b1-4)GlcNAc(b1-2)Man(a1-3)]Man(b1-4)GlcNAc(b1-4)[Fuc(a1-6)]GlcNAc
Procedure, shortened: as §1

[4] = biological target: Gal(b1-3)GlcNAc(b1-3)Gal(b1-4)GlcNAc(b1-6)[Gal(b1-3)GlcNAc(b1-3)]Gal(b1-4)Glc
Procedure, shortened: as §1

[5] = biological target: Gal(b1-3)GlcNAc(b1-3)Gal(b1-4)[Fuc(a1-3)]GlcNAc
Procedure, shortened: as §1

[6] = biological target: Gal(b1-3)GlcNAc(b1-3)Gal(b1-4)[Fuc(a1-3)]GlcNAc(b1-6)[Gal(b1-3)GlcNAc(b1-3)]Gal(b1-4)Glc
Procedure, shortened: as §1

[7] = biological target: Gal(b1-3)GlcNAc(b1-3)GalNAc
Procedure, shortened: as §1

[8] = biological target: Gal(b1-3)GlcNAc(b1-6)Gal(b1-4)GlcNAc
Procedure, shortened: as §1

[9] = biological target: Gal(b1-3)GlcNAc(b1-6)GalNAc
Procedure, shortened: as §1

[10] = biological target: Gal(b1-3)GlcNAc(b1-6)[Gal(b1-3)]GalNAc
Procedure, shortened: as §1

Gal(b1-3)GlcNAc6S = biological target: Gal(b1-3)GlcNAc6S
Procedure, shortened: as §1

[11] = biological target: Gal(b1-3)[Fuc(a1-4)]GlcNAc
Procedure, shortened: as §1

[12] = biological target: Gal(b1-3)[Fuc(a1-4)]GlcNAc(b1-2)Man
Procedure, shortened: as §1

[13] = biological target: Gal(b1-3)[Fuc(a1-4)]GlcNAc(b1-2)Man(a1-3)[Gal(b1-3)[Fuc(a1-4)]GlcNAc(b1-2)Man(a1-6)]Man(b1-4)GlcNAc(b1-4)[Fuc(a1-6)]GlcNAc
Procedure, shortened: as §1

[14] = biological target: Gal(b1-3)[Fuc(a1-4)]GlcNAc(b1-3)Gal(b1-3)[Fuc(a1-4)]GlcNAc
Procedure, shortened: as §1

[15] = biological target: Gal(b1-3)[Fuc(a1-4)]GlcNAc(b1-3)Gal(b1-4)[Fuc(a1-3)]GlcNAc
Procedure, shortened: as §1

[16] = biological target: Gal(b1-3)[Fuc(a1-4)]GlcNAc(b1-6)GalNAc
Procedure, shortened: as §1

[17] = biological target: Gal(b1-3)[GlcNAc(b1-6)]GalNAc
Procedure, shortened: as §1

[18] = biological target: Gal(b1-3)[Neu5Ac(a2-6)]GalNAc
Procedure, shortened: as §1

[19] = biological target: Gal(b1-3)[Neu5Ac(a2-6)]GlcNAc(b1-4)Gal(b1-4)Glc
Procedure, shortened: as §1

[20] = biological target: Gal(b1-3)[Neu5Ac(b2-6)]GalNAc
Procedure, shortened: as §1

Gal(b1-4)Gal = biological target: Gal(b1-4)Gal
Procedure, shortened: as §1

[21] = biological target: Gal(b1-4)GalNAc(a1-3)[Fuc(a1-2)]Gal(b1-4)GlcNAc
Procedure, shortened: as §1

[22] = biological target: Gal(b1-4)GalNAc(b1-3)[Fuc(a1-2)]Gal(b1-4)GlcNAc
Procedure, shortened: as §1

Gal(b1-4)Glc = biological target: Gal(b1-4)Glc
Procedure, shortened: as §1

Gal(b1-4)Glc6S = biological target: Gal(b1-4)Glc6S
Procedure, shortened: as §1

Gal(b1-4)GlcNAc = biological target: Gal(b1-4)GlcNAc
Procedure, shortened: as §1

[23] = biological target: Gal(b1-4)GlcNAc(a1-6)Gal(b1-4)GlcNAc
Procedure, shortened: as §1

Gal(b1-4)GlcNAc(b1-2)Man = biological target: Gal(b1-4)GlcNAc(b1-2)Man
Procedure, shortened: as §1

[24] = biological target: Gal(b1-4)GlcNAc(b1-2)Man(a1-3)Man(b1-4)GlcNAc(b1-4)GlcNAc
Procedure, shortened: as §1

[25] = biological target: Gal(b1-4)GlcNAc(b1-2)Man(a1-3)[Gal(b1-4)GlcNAc(b1-2)Man(a1-6)]Man(b1-4)GlcNAc(b1-4)GlcNAc
Procedure, shortened: as §1

[26] = biological target: Gal(b1-4)GlcNAc(b1-2)Man(a1-3)[Gal(b1-4)GlcNAc(b1-2)Man(a1-6)]Man(b1-4)GlcNAc(b1-4)[Fuc(a1-6)]GlcNAc
Procedure, shortened: as §1

[27] = biological target: Gal(b1-4)GlcNAc(b1-2)Man(a1-3)[Gal(b1-4)GlcNAc(b1-2)Man(a1-6)][Gal(b1-4)GlcNAc(b1-4)]Man(b1-4)GlcNAc(b1-4)[Fuc(a1-6)]GlcNAc
Procedure, shortened: as §1

[28] = biological target: Gal(b1-4)GlcNAc(b1-2)Man(a1-3)[Gal(b1-4)GlcNAc(b1-2)Man(a1-6)][GlcNAc(b1-4)]Man(b1-4)GlcNAc(b1-4)[Fuc(a1-6)]GlcNAc
Procedure, shortened: as §1

[29] = biological target: Gal(b1-4)GlcNAc(b1-2)Man(a1-3)[GlcNAc(b1-2)Man(a1-6)]Man(b1-4)GlcNAc(b1-4)GlcNAc
Procedure, shortened: as §1

[30] = biological target: Gal(b1-4)GlcNAc(b1-2)Man(a1-3)[GlcNAc(b1-4)][Gal(b1-4)GlcNAc(b1-2)Man(a1-6)]Man(b1-4)GlcNAc(b1-4)GlcNAc
Procedure, shortened: as §1

[31] = biological target: Gal(b1-4)GlcNAc(b1-2)Man(a1-3)[Man(a1-6)]Man(b1-4)GlcNAc(b1-4)GlcNAc
Procedure, shortened: as §1

[32] = biological target: Gal(b1-4)GlcNAc(b1-2)Man(a1-6)Man(b1-4)GlcNAc(b1-4)GlcNAc
Procedure, shortened: as §1

B1: Epa2 (Candida glabrata) (protein)
chain: MGSSHHHHHHSSGLVPRGSHMASSKDPTSFPMGCSPQVLKTQPGLAVKLYSYGHPVPGCAYNTYQYPDFPRSGYKKERKLADITGVNGRIDIDLKPNDPCRVLSGNLPSNYNYQNTLTYTNFTMILYGYFQPKVTGYHTFNLEADDLLFMNLGAGNAFDCCRAESTLDNFGNYQSYSIWGTDKATADLTVFLVSGIYYPIRLFYVNRDNNAVLDFSFSTEFNKEIIHDFTSYFFSASDEEQCPGNI
glycan array binding signal (z-score) [1]: 0.162 | glycan array binding signal (z-score) [2]: 0.811 | glycan array binding signal (z-score) [3]: 0.918 | glycan array binding signal (z-score) [4]: 0.113 | glycan array binding signal (z-score) [5]: -1.45 | glycan array binding signal (z-score) [6]: 0.064 | glycan array binding signal (z-score) [7]: -0.453 | glycan array binding signal (z-score) [8]: 0.047 | glycan array binding signal (z-score) [9]: -0.542 | glycan array binding signal (z-score) [10]: -0.554 | glycan array binding signal (z-score) (Gal(b1-3)GlcNAc6S): -0.1 | glycan array binding signal (z-score) [11]: -0.236 | glycan array binding signal (z-score) [12]: -0.386 | glycan array binding signal (z-score) [13]: 0.301 | glycan array binding signal (z-score) [14]: -0.476 | glycan array binding signal (z-score) [15]: -0.448 | glycan array binding signal (z-score) [16]: 0.152 | glycan array binding signal (z-score) [17]: 0.09 | glycan array binding signal (z-score) [18]: 0.213 | glycan array binding signal (z-score) [19]: 0.015 | glycan array binding signal (z-score) [20]: -0.297 | glycan array binding signal (z-score) (Gal(b1-4)Gal): -0.254 | glycan array binding signal (z-score) [21]: 0.354 | glycan array binding signal (z-score) [22]: 0.003 | glycan array binding signal (z-score) (Gal(b1-4)Glc): -0.356 | glycan array binding signal (z-score) (Gal(b1-4)Glc6S): -0.198 | glycan array binding signal (z-score) (Gal(b1-4)GlcNAc): -0.628 | glycan array binding signal (z-score) [23]: -0.126 | glycan array binding signal (z-score) (Gal(b1-4)GlcNAc(b1-2)Man): -0.312 | glycan array binding signal (z-score) [24]: -0.247 | glycan array binding signal (z-score) [25]: -0.354 | glycan array binding signal (z-score) [26]: -0.25 | glycan array binding signal (z-score) [27]: -0.945 | glycan array binding signal (z-score) [28]: -0.911 | glycan array binding signal (z-score) [29]: -1.06 | glycan array binding signal (z-score) [30]: -0.652 | glycan array binding signal (z-score) [31]: -0.077 | glycan array binding signal (z-score) [32]: -0.416
